# Results deposited as PubChem BioAssay AID743454 (Peter MacCallum Cancer Centre, 2014).
# Purpose: 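Knock-downs lowering viability or raising caspase 3/7 activity in vorinostat-treated resistant cells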 (primary screen)
# System: human HCT116-VR colon cancer cells, selected for vorinostat resistance
# Reagent: siRNA pool against human genes, 40 nM siRNA pool
# Time to read-out: vorinostat for 24 h, read-out about 72 h after transfection
# Treatment: vorinostat at 2.5 µM final
# Measurement: 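Two measures, CellTiter-Fluor viability and luminescent caspase 3/7 activity, each as fold change against same-plate mock wells, mean of duplicates, then screen-wide robust z-score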
# Direction: viability robust z-score: higher = more viable cells than screen typical; caspase robust z-score: higher = more caspase 3/7 activity than screen typical
# Active means: 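Hits are knock-downs in viability class RV1/RV2 or caspase class CA1/CA2, excluding ones that killed cells in the no-drug cell-count arm; hits then retested with single siRNAs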
# Here is an unselected part of about 18,000 reagents. In the full data, 450 (2.5%) were called active. 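Single biological run; no consistent viability z cut-off exists, so the class columns, not z-scores, define the calls.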 Reagents against one gene are numbered here.
Target gene,reagent,viability hit class,caspase hit class,viability robust z-score,caspase robust z-score,call
MAGEB18,1,no change,no change,0.36,-1.01,inactive
CSNK1D,1,no change,no change,0.78,-0.52,inactive
OTULINL,1,no change,no change,-0.1,-0.06,inactive
PLEKHB2,1,no change,no change,0.88,-0.76,inactive
PMS2P3,1,no change,no change,-0.8,0.36,inactive
SPMIP2,1,no change,no change,0.73,-1.27,inactive
GPR63,1,no change,no change,-0.44,0.34,inactive
HLA-K,1,no change,no change,-2.34,3.08,inactive
LCE5A,1,no change,no change,0.2,1.31,inactive
IL26,1,no change,no change,0.6,-0.64,inactive
DEFA4,1,no change,no change,-1.77,3.05,inactive
PLCL1,1,no change,no change,-2.04,0.11,inactive
OPN4,1,no change,no change,0.1,0.76,inactive
C21orf58,1,no change,no change,-1.79,2.41,inactive
CTDNEP1,1,no change,no change,-0.07,1.97,inactive
CEP250,1,no change,no change,-0.14,-0.84,inactive
MTHFD2,1,no change,no change,0.87,-0.52,inactive
PRL,1,no change,no change,-2.07,3.29,inactive
BSG,1,no change,no change,-0.92,-1.45,inactive
KDELR2,1,no change,no change,0.32,0.04,inactive
STRN,1,no change,no change,0.64,-0.42,inactive
TRMT2A,1,no change,no change,-1.24,1.28,inactive
MZT1,1,no change,no change,-1.74,0.06,inactive
RPL37,1,no change,no change,-3.73,-1.02,inactive
BAZ2B,1,no change,no change,0.6,0.05,inactive
OR1L8,1,no change,no change,0.64,-0.32,inactive
MYO9B,1,no change,no change,-0.22,-0.25,inactive
VCY,1,no change,no change,-0.12,0.01,inactive
TSFM,1,no change,no change,0,-1.35,inactive

The list goes on, starting with the last 7 of the part before.
Target gene,reagent,viability hit class,caspase hit class,viability robust z-score,caspase robust z-score,call
MZT1,1,no change,no change,-1.74,0.06,inactive
RPL37,1,no change,no change,-3.73,-1.02,inactive
BAZ2B,1,no change,no change,0.6,0.05,inactive
OR1L8,1,no change,no change,0.64,-0.32,inactive
MYO9B,1,no change,no change,-0.22,-0.25,inactive
VCY,1,no change,no change,-0.12,0.01,inactive
TSFM,1,no change,no change,0,-1.35,inactive
BTN2A3P,1,no change,no change,-0.06,0.18,inactive
SSPOP,1,no change,no change,1.15,-0.69,inactive
FANCD2OS,1,no change,no change,2.02,0.61,inactive
FBXO5,1,no change,no change,-1.18,3.27,inactive
CDC42EP1,1,no change,no change,-0.7,3.52,inactive
TCP1,1,no change,no change,-0.12,0.24,inactive
TMEM252,1,no change,no change,0.24,-0.02,inactive
SIX6,1,no change,no change,-0.26,-0.7,inactive
ATN1,1,no change,no change,-0.6,1.74,inactive
CARD16,1,no change,no change,0.4,-0.29,inactive
C1QTNF6,1,no change,no change,-2.86,1.4,inactive
CWC15,1,no change,no change,-2.63,0.04,inactive
PDE6A,1,no change,no change,-0.25,-0.88,inactive
SEC22B,1,no change,no change,0.05,1.14,inactive
CNDP2,1,no change,no change,0.72,-0.22,inactive
CSAG2,1,no change,no change,-0.76,1.26,inactive
CSAG2,2,no change,no change,-0.28,2.28,inactive
ZNF417,1,no change,no change,0.04,0.08,inactive
OR7C2,1,no change,no change,-1.9,0.62,inactive
CLGN,1,no change,no change,-1.04,0.05,inactive
SLC17A4,1,no change,no change,-0.87,-0.12,inactive
ONECUT3,1,no change,no change,-0.69,-0.69,inactive
OTOP1,1,no change,no change,-0.23,-0.43,inactive
OR8J1,1,no change,no change,1.21,0.74,inactive
OMD,1,no change,no change,-0.76,2.21,inactive
EEF1D,1,no change,no change,-0.1,1.13,inactive
DYRK1B,1,no change,no change,-0.74,1.43,inactive
CLCC1,1,no change,no change,-0.21,0.4,inactive
